The list shows a part of the results. These are further read-outs of the screen, such as a control signal, another cell line or another target. No call is given for them. Compounds called inactive in the main read-out are mostly missing here. Potencies come from curve fits of mixed quality, noted in brackets.

The nature of this assay: IkB Signaling. The settings on record: ABC-DLBCL IkBa-CBG/CBR dual luciferase ratio (green luciferase fused to IkBa over red control in OCI-Ly3 lymphoma cells), 4 h. The gist of the method: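 In this assay, an IκBα–CBG68 fusion accumulates when IKK-driven degradation is blocked; native CBR normalizes for cell number. OCI-Ly3 cells were treated 4 h with compound and doxycycline, then green and red light read after Chroma-Glo addition.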
Setting [1] is: measured here: control luc red channel unless noted.

For orientation: AC50 means the midpoint of the concentration-response curve, whichever way the signal moves. For `COc1cc(OC)cc(-c2nc3nc(C)c(CCC(=O)Nc4ccc(C)c(C)c4)c(C)n3n2)c1`, the AC50 under setting [1] is 10 µM [falling, partial curve].

Take `Cc1cc(-c2nc3ncccc3o2)ccc1NC(=O)COc1ccccc1C`: the AC50 under setting [1] is 39.8 µM [rising, single point].

On to `Cc1ccc2occ(CC(=O)N(Cc3ccc(Cl)cc3)C3CCS(=O)(=O)C3)c2c1` (stereo not drawn), for which, under setting [1], the AC50 is 25.1 µM [falling, partial curve].

Take `Cn1cc(C2=C(c3ccc(Cl)cc3Cl)C(=O)NC2=O)c2ccccc21`: under setting [1], the AC50 was 39.8 µM [falling, partial curve].

On to `O=C(Cc1ccccc1)NC1CC(=O)N(c2ccccc2)C1` (stereo not drawn), for which the AC50 under setting [1] was 7.94 µM [falling, single point].

For the compound `Cc1ccc(-c2noc(CNS(=O)(=O)c3ccc(F)cc3)n2)cc1`, the AC50 under setting [1] was 39.8 µM [falling, single point].

Consider `COc1ccccc1N1CCN(C(=O)CN2C(=O)COc3ccc(S(=O)(=O)N4CCCCCC4)cc32)CC1`, for which the AC50 under setting [1] is 31.6 µM [falling, single point].

As to `Cc1c(NC(=O)c2cc(-c3ccc(F)cc3)on2)c(=O)n(-c2ccccc2)n1C`, the AC50 under setting [1] is 5.01 µM [falling, partial curve].

Consider `CCN(CC)c1ccc(NC(=O)c2cnc3c(-c4ccccc4)c(C)nn3c2C)c(C)c1`, for which the AC50 under setting [1] was 39.8 µM [falling, single point].

With `Clc1cccc(-c2nc(-c3ccccn3)no2)c1`, under setting [1], the AC50 is 10 µM [falling, partial curve].

Turning to `CCOC(=O)c1cc2c(=O)n3ccccc3nc2n(C(C)C)c1=NC(=O)c1cc2ccccc2o1`, the concentration at half-maximal activity (AC50) under setting [1] is 31.6 µM [falling, single point].

On to `COc1ccc(CNC(=O)CN2C(=O)COc3ccc(S(=O)(=O)Nc4ccccc4)cc32)cc1`, for which the AC50 under setting [1] was 31.6 µM [falling, single point].

Turning to `O=C(Nc1ccc(F)c(F)c1)c1cc(S(=O)(=O)NC2CCCCCC2)ccc1F`, the AC50 under setting [1] is 15.8 µM [falling, partial curve].

As to `Cn1c2ccccc2c2c(C(=O)N3CCN(c4ccccn4)CC3)cn(C3CCCC3)c(=O)c21`, under setting [1], the AC50 was 15.8 µM [falling, partial curve].

As to `CNC(=O)c1c(NC(=O)c2ccc(S(=O)(=O)N3CCCCC3)cc2)sc2c1CCC2`, the AC50 under setting [1] was 12.6 µM [falling, partial curve].

Take `CCCCN(CCCC)CCNC(=O)Cn1nc(C)n2c(cc3sccc32)c1=O`: the AC50 under setting [1] is 0.1 µM [falling, partial curve, poor fit].

Consider `CC(C)c1ccc(NC(=O)CS(=O)(=O)c2cccc3nsnc23)cc1`, for which the AC50 under setting [1] was 1.58 µM [rising, full curve, poor fit].

`CC(C)(C)c1ccc(C(=O)N2CCC(c3nc(-c4ccc(S(=O)(=O)N5CCCC5)cc4)no3)CC2)cc1`: the AC50 under setting [1] was 25.1 µM [falling, single point].

For the compound `CCOc1ccc(-c2cc3c(=O)n(Cc4nc(-c5ccc(OC(C)C)cc5)oc4C)ccn3n2)cc1Cl`, the AC50 under setting [1] is 0.0251 µM [rising, full curve, poor fit].

Turning to `CS(=O)(=O)N1CCCC(C(=O)NCc2ccco2)C1` (stereo not drawn), the AC50 under setting [1] is 1.58 µM [rising, partial curve].

With `CCCCN(CC)CCCNC(=O)Cn1ncc2c3ccccc3n(Cc3ccccc3F)c2c1=O`, the AC50 under setting [1] is 25.1 µM [falling, single point].

On to `Cc1ccc(-c2n[nH]c3c2C(c2cccc(O)c2)N(c2ccc(C(=O)O)cc2)C3=O)cc1` (stereo not drawn), for which the AC50 under setting [1] is 7.94 µM [falling, partial curve].

With `O=C(Cn1nc(N2CCN(c3ccccc3)CC2)ccc1=O)Nc1ccc(F)cc1F`, the AC50 under setting [1] was 12.6 µM [falling, partial curve].

As to `COc1ccc(CNC(=O)C2CCCN(C(=O)N3CCOc4ccccc43)C2)cc1` (stereo not drawn), under setting [1], the AC50 was 3.98 µM [rising, partial curve].

On to `O=C(CCCn1c(=O)c2ccccc2n(CC(=O)Nc2cccc(C(F)(F)F)c2)c1=O)NCc1ccc2c(c1)OCO2`, for which the half-maximal activity concentration (AC50) under setting [1] is 10 µM [falling, partial curve].

As for `Cn1nnc2c(N3CCN(c4ccccc4)CC3)ncnc21`, the AC50 under setting [1] was 5.01 µM [rising, partial curve].

For the compound `COC(=O)c1ccc(CSc2ncnc3ccccc23)o1`, the AC50 under setting [1] was 31.6 µM [falling, single point].

Regarding `CCOc1ccc(N(CC)S(=O)(=O)N2CCCC(C(=O)Nc3cc(Cl)ccc3C)C2)cc1` (stereo not drawn), the AC50 under setting [1] is 10 µM [falling, partial curve].

Regarding `Cc1ccc(Cl)cc1N1CCN(C(=O)C2CCN(S(=O)(=O)c3cccc4nonc34)CC2)CC1`, under setting [1], the AC50 was 2.51 µM [falling, partial curve, poor fit].

With `Cc1ccccc1OC(=O)CSc1nnc(-c2ccc3c(c2)OCO3)o1`, under setting [1], the half-maximal activity concentration (AC50) is 0.251 µM [rising, partial curve, poor fit].

Take `Cc1ccc(C(=O)Nc2ccc(S(=O)(=O)O)c3cc(S(=O)(=O)O)cc(S(=O)(=O)O)c23)cc1NC(=O)c1cccc(NC(=O)Nc2cccc(C(=O)Nc3cc(C(=O)Nc4ccc(S(=O)(=O)O)c5cc(S(=O)(=O)O)cc(S(=O)(=O)O)c45)ccc3C)c2)c1`: the AC50 under setting [1] was 3.98 µM [rising, full curve, poor fit].

For the compound `CN(Cc1ccc(F)cc1)S(=O)(=O)c1nnc(NC(=O)c2ccccc2Br)s1`, the AC50 under setting [1] was 39.8 µM [falling, single point].

Regarding `Cc1ccc(-n2nc3c(=O)n(CCCC(=O)NCc4ccccc4C)nc(C)c3c2C)cc1`, under setting [1], the AC50 was 10 µM [falling, partial curve].

For the compound `CC(C)C(=O)N1CCC(CN=Cc2c(O)n(C3CCCCC3)c(=O)n(C3CCCCC3)c2=O)CC1`, the AC50 under setting [1] is 12.6 µM [falling, partial curve].

Consider `CCOc1cccc(C2c3[nH]c4ccccc4c3CCN2C(=O)c2ccccc2F)c1` (stereo not drawn), for which the half-maximal activity concentration (AC50) under setting [1] was 25.1 µM [falling, partial curve].

As for `CCC(Sc1nnc(C)n2c1cc1sccc12)C(=O)Nc1ccccc1F` (stereo not drawn), the AC50 under setting [1] was 25.1 µM [falling, partial curve].

Regarding `CCOC(=O)c1c(SCC(=O)Nc2nc3ccccc3s2)nc(=O)[nH]c1C`, the AC50 runs as follows: (measured here: IkB-luc green channel) 0.2 µM [rising, full curve]; (measured here: control luc red channel) 0.398 µM [falling, full curve].
